Results from the supplement of paper PMC7877785.
± gives the uncertainty stated by the source. Many entries were measured with a wide error.

Assay: self-splicing fitness, log relative to wild type (ln ratio); higher = more splicing; Tetrahymena group I intron in knt gene, E. coli kanamycin selection, DiMSum; sequences stand for … in CUCUCU…GGAGGGAAAAGUUAUCAGGCAUGCACCUGGUAGCUAGUCUUUAAACCAAUAGAUUGCAUCGGUUUAAAAGGCAAGACCGUCAAAUUGCGGGAAAGGGGUCAACAGCCGUUCAGUACCAAGUCUCAGGGGAAACUUUGAGAUGGCCUUGCAAAGGGUAUGGUAAUAAGCUGACGGACAUGGUCCUAACCACGCAGCCAAGUCCUAAGUCAACAGAUCUUCUGUUGAUAUGGAUGCAGUUCACAGACUAAAUGUCGGUCGGGGAAGAUGUAUUCUUCUCAUAAGAUAUAGUCGGACCUCUCCUUAAUGGGAGCUAGCGGAUGAAGUGAUGCAACACUGGAGCCGCUGGGAACUAAUUUGUAUGCGAAAGUAUAUUGAUUAGUUUUGGAGUACUCGUGGUCG
Outline: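 Colonies from six replicate transformations of E. coli BL21(DE3) were pooled and amplicon-sequenced on an Illumina HiSeq 2500. The library placed an intron with all eight P1ex-region nucleotides randomised inside the knt kanamycin-resistance gene on pET-22b(+), and cells grew overnight at 37°C or 30°C on LB agar with or without 25 μg/mL kanamycin (plus 100 μg/mL carbenicillin, 50 μM IPTG, 0.2% rhamnose). Fitness is the DiMSum error-weighted combination of wild-type-normalised replicate fold changes, kanamycin versus none.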

Sequence	self-splicing fitness (ln) (30 °C)	self-splicing fitness (ln) (37 °C)
UUUUAGCAAUAUUACGAACC	-1.09 ± 0.61	-0.656 ± 0.82
AGUGAGCAAUAUUACGCAGC	–	-1.65 ± 0.84
GCUUAGCAAUAUUACGUCAG	-2.36 ± 0.22	-3.3 ± 0.52
ACCAAGCAAUAUUACGUAAC	-3.94 ± 0.17	-2.19 ± 0.16
GGCUAGCAAUAUUACGCCCA	-0.828 ± 0.82	1.85 ± 0.53
UGGGAGCAAUAUUACGAGUU	-3.49 ± 0.52	-2.29 ± 0.78
ACAGAGCAAUAUUACGCUAA	-5.18 ± 1	-3.43 ± 0.52
UUUGAGCAAUAUUACGGCGC	–	-2.22 ± 0.64
UGAUAGCAAUAUUACGCGUG	-1.18 ± 0.072	-0.0417 ± 0.078
CCCUAGCAAUAUUACGAAUG	–	-3.61 ± 0.73
GAAUAGCAAUAUUACGUUAA	-2.56 ± 0.17	-1.9 ± 0.15
GUGGAGCAAUAUUACGCUCU	-3.34 ± 1.1	-1.69 ± 0.82
GCUGAGCAAUAUUACGGGGU	-4.24 ± 0.51	–
UUGCAGCAAUAUUACGAGAA	-1.82 ± 0.71	–
GGAGAGCAAUAUUACGCACG	-4.03 ± 0.52	–
CGUCAGCAAUAUUACGCAGG	-3.85 ± 0.3	-1.69 ± 0.18
CUAUAGCAAUAUUACGAAGA	–	-3.36 ± 0.52
GUUGAGCAAUAUUACGCCAA	–	-3.08 ± 1
AGUGAGCAAUAUUACGAGAC	-4.63 ± 1	–
GAACAGCAAUAUUACGCCGC	-4.77 ± 0.72	–

Sequence	self-splicing fitness (ln) (30 °C)	self-splicing fitness (ln) (37 °C)
GUUGAGCAAUAUUACGAAAA	–	-0.778 ± 1.4
CUGUAGCAAUAUUACGGAAA	–	-3.3 ± 0.52
UAGGAGCAAUAUUACGUAUC	–	-3.33 ± 0.52
AGAGAGCAAUAUUACGCGCC	–	-2.09 ± 0.52
GUAGAGCAAUAUUACGAGCC	–	-1.8 ± 0.67
UGUGAGCAAUAUUACGCUCC	–	-0.466 ± 0.78
AUCAAGCAAUAUUACGUACC	-0.82 ± 0.12	-0.953 ± 0.17
CUUGAGCAAUAUUACGCCGG	-4.04 ± 0.46	-1.65 ± 0.47
UCGAAGCAAUAUUACGUAGC	-3.84 ± 0.51	–
CGGGAGCAAUAUUACGAACA	-2.97 ± 0.75	–
UUCAAGCAAUAUUACGCGGC	-2.36 ± 0.67	-2.03 ± 0.66
CGGAAGCAAUAUUACGCCCG	-2.86 ± 0.36	-2.24 ± 0.56
CAAGAGCAAUAUUACGAAAA	-2.13 ± 0.65	–
UCUGAGCAAUAUUACGCCAG	-2.76 ± 0.54	–
CCGGAGCAAUAUUACGGUCC	–	-0.527 ± 0.56
CUGAAGCAAUAUUACGGGAA	–	-3.37 ± 0.6
AGAGAGCAAUAUUACGUUUU	–	-4.72 ± 1
GGAGAGCAAUAUUACGGACC	-2.09 ± 1.4	–
UUCUAGCAAUAUUACGCGCU	-2.95 ± 1.1	–
GGAGAGCAAUAUUACGAGCG	-3.33 ± 0.64	–

Sequence	self-splicing fitness (ln) (30 °C)	self-splicing fitness (ln) (37 °C)
CUGUAGCAAUAUUACGUCCU	–	-1.98 ± 1.1
GUCCAGCAAUAUUACGAGCU	-4.55 ± 0.58	–
ACAGAGCAAUAUUACGCUCC	-3.15 ± 0.64	–
GCUUAGCAAUAUUACGUCCC	–	-0.932 ± 0.59
AGAGAGCAAUAUUACGAGUC	-4.42 ± 1	–
GGCUAGCAAUAUUACGUCGC	-1.5 ± 0.28	-0.438 ± 0.22
CCCAAGCAAUAUUACGCACC	-3.5 ± 0.73	–
UGGUAGCAAUAUUACGUAUC	-2.96 ± 0.52	–
GGGCAGCAAUAUUACGAAUA	-3.07 ± 0.61	–
CAUGAGCAAUAUUACGCAAU	–	-4.06 ± 0.51
CCGUAGCAAUAUUACGACAC	–	-3.34 ± 0.52
CCUAAGCAAUAUUACGUGCC	–	-2.12 ± 0.61
UAGAAGCAAUAUUACGAGGC	-3.06 ± 0.61	–
UAGAAGCAAUAUUACGAAGG	-2.9 ± 0.17	-1.82 ± 0.39
CUCGAGCAAUAUUACGCAGC	-3.91 ± 0.51	-2.06 ± 0.55
AUUGAGCAAUAUUACGUACC	-2.71 ± 0.79	–
ACCGAGCAAUAUUACGUCGC	–	-3.76 ± 0.52
UUCGAGCAAUAUUACGCAAA	-0.773 ± 0.28	-1.92 ± 0.26

Complete entries from above. Order of values: self-splicing fitness (ln) (30 °C) | self-splicing fitness (ln) (37 °C)
AUUGAGCAAUAUUACGUACC as listed: -2.71 ± 0.79 | –
CCCAAGCAAUAUUACGCACC as listed: -3.5 ± 0.73 | –
